In paper PMC3210094:
Construct, isoform or probe ends are uncertain for at least one entry. At least one result comes from cells or an extract, where the contact may be indirect. For some of these results: Negatives hold for the conditions tested. For some of these results: At least one verdict rests on a figure or table, not on a statement of the authors. Tags and fusion partners may be left off the protein sequences shown. For some of these results: The comparison behind a weaker result is the experiment's own reference, which may not be listed here.

Legend:
Foxa1 (zebrafish) [1] = target: T1, Foxa1 (zebrafish) (UniProt Q6P0C9); experiment: EMSA; conditions: nuclear extract, Foxa1 identified by supershift on EM4 only; 10 nM probe, 10 ug nuclear extract, 500 ng poly dI-dC, 40 mM Tris-HCl pH 8.0, 0.4 mg/ml BSA, 200 uM ZnCl2, 400 mM KCl, 40% glycerol, 0.4% IGEPAL, 4 C, 1 h; 8% 1X TBE gel; protein in an extract; label: 5' Cy5
T1 sequence (looked up, limits assumed): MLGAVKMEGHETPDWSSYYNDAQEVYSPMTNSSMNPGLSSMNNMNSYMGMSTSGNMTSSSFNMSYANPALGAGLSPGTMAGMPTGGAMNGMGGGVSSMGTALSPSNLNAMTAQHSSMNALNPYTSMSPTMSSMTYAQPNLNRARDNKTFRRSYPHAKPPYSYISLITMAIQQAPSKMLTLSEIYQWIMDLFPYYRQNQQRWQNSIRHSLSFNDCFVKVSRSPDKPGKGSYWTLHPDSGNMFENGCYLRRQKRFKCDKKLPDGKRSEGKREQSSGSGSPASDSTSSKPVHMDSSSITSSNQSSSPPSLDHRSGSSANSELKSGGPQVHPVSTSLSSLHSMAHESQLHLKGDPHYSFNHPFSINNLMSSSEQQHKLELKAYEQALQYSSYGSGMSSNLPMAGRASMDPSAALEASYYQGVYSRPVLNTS

Foxa1 (zebrafish) [2] = target: T1, Foxa1 (zebrafish); experiment: EMSA supershift; conditions: FOXA1 antibody, nuclear extract; 10 nM probe, 10 ug nuclear extract, 500 ng poly dI-dC, 40 mM Tris-HCl pH 8.0, 0.4 mg/ml BSA, 200 uM ZnCl2, 400 mM KCl, 40% glycerol, 0.4% IGEPAL, 4 C, 1 h; 8% 1X TBE gel; protein in an extract; label: 5' Cy5

Row | Sequence | binding result (Foxa1 (zebrafish) [1]) | binding result (Foxa1 (zebrafish) [2])
1 | CTCGTTCTCTGCCTTTCTCTGGAGGGAGGGCTCTCCCTCT (double strand) [EM4 mutant M21-30] | no binding | 
2 | CTCGTTCTCTGCCTTTCTCTGGAGGTCTTTCTCTCCCTCT (double strand) [EM4 mutant Probe 5 (nt 21-25)] | no binding | 
3 | CTCGTTCTCTGCCTTTCTCTTTCTTGAGGGCTCTCCCTCT (double strand) [EM4 mutant Probe 6 (nt 26-30)] | binds more weakly | 
4 | CTCGTTCTCTGCCTTTCTCTTTCTTTCTTTCTCTCCCTCT (double strand) [EM4] |  | binds
